Assay results: PMC4895385, “The ubiquitin E3 ligase TRAF6 exacerbates pathological cardiac hypertrophy via TAK1-dependent signalling” (Nature Communications, 2016)
These are yes or no findings as the source states them, for the method shown. In cells and extracts the contact can be indirect. Some entries that bind do so weakly or less than the wild type.

How the values were obtained:
[1] = target: T1, Traf6 (C70A) mutant (rat, expressed from adenovirus AdTraf6 (C70A)) (rat) (UniProt B5DF45); experiment: co-IP; neonatal rat cardiomyocytes infected with the indicated adenovirus, Ang II for 15 min with or without NAC; IP with anti-TRAF6 antibody, blot with anti-TAB2 or anti-TAK1
T1 sequence: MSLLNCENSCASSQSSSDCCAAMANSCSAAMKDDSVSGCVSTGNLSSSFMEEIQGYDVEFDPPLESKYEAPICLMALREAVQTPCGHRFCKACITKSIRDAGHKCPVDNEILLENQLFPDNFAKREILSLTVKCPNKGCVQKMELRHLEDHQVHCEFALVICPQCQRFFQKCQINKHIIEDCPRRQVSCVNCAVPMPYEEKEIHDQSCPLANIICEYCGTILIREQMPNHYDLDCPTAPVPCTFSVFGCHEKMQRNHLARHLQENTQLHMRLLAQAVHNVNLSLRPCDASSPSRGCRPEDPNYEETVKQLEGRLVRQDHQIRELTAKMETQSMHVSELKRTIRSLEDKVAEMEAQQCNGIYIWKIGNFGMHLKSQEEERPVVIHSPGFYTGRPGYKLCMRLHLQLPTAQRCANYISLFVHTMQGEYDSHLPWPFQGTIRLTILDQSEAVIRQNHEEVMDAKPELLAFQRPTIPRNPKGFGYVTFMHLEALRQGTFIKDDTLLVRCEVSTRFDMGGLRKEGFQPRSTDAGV

[2] = target: T2, Traf6 (rat, expressed from adenovirus AdTraf6) (rat) (UniProt B5DF45); experiment: as above
T2 sequence: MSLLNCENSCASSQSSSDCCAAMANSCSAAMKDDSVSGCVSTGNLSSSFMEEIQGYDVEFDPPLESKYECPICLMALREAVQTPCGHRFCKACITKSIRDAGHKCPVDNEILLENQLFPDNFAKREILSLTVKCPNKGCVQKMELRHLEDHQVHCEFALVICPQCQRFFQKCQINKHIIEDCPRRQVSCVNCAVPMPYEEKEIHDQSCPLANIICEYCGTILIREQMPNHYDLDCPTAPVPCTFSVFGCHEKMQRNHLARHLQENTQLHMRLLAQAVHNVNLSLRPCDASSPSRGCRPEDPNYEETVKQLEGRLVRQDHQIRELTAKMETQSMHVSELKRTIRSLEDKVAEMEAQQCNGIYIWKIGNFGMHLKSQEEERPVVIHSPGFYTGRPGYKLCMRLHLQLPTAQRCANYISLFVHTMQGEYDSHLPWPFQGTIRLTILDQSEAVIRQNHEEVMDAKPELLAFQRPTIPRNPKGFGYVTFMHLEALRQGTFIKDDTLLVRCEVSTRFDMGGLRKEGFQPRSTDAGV

| Binder | binding [1] | binding [2] |
| --- | --- | --- |
| Tab2 (protein, UniProt Q5U303 1-693) MAQGSHQIDFQVLHDLRQKFPEVPEVVVSRCMLQNNNNLDACCAVLSQESTRYLYGEGDLNFSDESGISGLRNHMTSLNLDLQSQNVYHHGREGSRVNGSRTLTHSVSDGQLQGGQSNNELFQQEPQTAPAQVPQGFNVFGMPSTSGASNSTPHLGFHLGSKGTSNLSQQTPRFNPIMVTLAPNIQTGRSTPTSLHIHGVPPPVLNSPQGNSIYIRPYITTPSGAARQTQQHSGWVSQFNPVNPQQAYQPSQPGPWTTYPASNPLPHTSTQQPNQQGHQTSHVYMPISSPTTPQPPTVHSSASSQSSAHSQYNIQNISTGPRKNQIEIKLEPPQRNSSSKLRSSGPRTASTSSLVNSQTLNRNQPTVYIAASPPSTDEMISRSQPKVYISANASTGDEQGMRNQPTLFISTNSGASAASRNMSGQVSMGPAFIHHHPPKSRVLGGNSAASPRVVVTQPNTKYTFKITVSPNKPPAVSPGVVSPTFELTNLLNHPDHYVETETIQHLTDPTLAHVDRVSEARKLSMGSDDAAYTQALLVHQKARMERLQRELEMQKKKLDKLKSEVNEMENSLTRRRLKRSNSMSQIPSLEEMQQLRSCNRQLQIDIDCLTKEIDLFQARGPHFNPSAIHNFYDNIGFVGPVPPKPKDQRSTIKAPKTQDTEDEEGAQWNCTACTFLNHPALIRCEQCEMPRHF | no binding | binds |
| Tak1 (transforming growth factor beta-activated kinase 1) (protein, UniProt P0C8E4 1-606) MSTASAASSSSSSSASEMIEAPSQVLNFEEIDYKEIEVEEVVGRGAFGVVCKAKWRAKDVAIKQIESESERKAFIVELRQLSRVNHPNIVKLYGACLNPVCLVMEYAEGGSLYNVLHGAEPLPYYTAAHAMSWCLQCSQGVAYLHSMQPKALIHRDLKPPNLLLVAGGTVLKICDFGTACDIQTHMTNNKGSAAWMAPEVFEGSNYSEKCDVFSWGIILWEVITRRKPFDEIGGPAFRIMWAVHNGTRPPLIKNLPKPIESLMTRCWSKDPSQRPSMEEIVKIMTHLMRYFPGADEPLQYPCQYSDEGQSNSATSTGSFMDIASTNTSNKSDTNMEQVPATNDTIKRLESKLLKNQAKQQSDSGRLSLGASRGSSVESLPPTSEGKRMSADMSEIEARIVATTAYTKPKRGHRKTASFGNILDVPEIVISGNGQPRRRSIQDLTVTGTEPGQVSSRSSSPSVRMITTSGPTSEKPARSLPWTPDDSTDTNGSDNSIPMAYLTLDHQLQPLAPCPNSKESMAVFEQHCKMAQEYMKVQTEIALLLQRKQELVAELDQDEKDQQNTSRLVQEHKKLLDENKSLSTYYQQCKKQLEVIRSQQQKRQGTS | no binding | binds |
